Data reported in PubChem BioAssay AID651640 (Broad Institute, 2012).
Where “and” joins values, the source holds several entries; their conditions need not be identical. Equal values may be shown once. In all, about 350,000 compounds went through this assay and about 6,000 (1.7%) were called active. This list was built around the results that the source calls inconclusive (neither active nor inactive); the mix of calls is not that of the screen. Rule as the data show it: active = CPE inhibition above about 20% (passing the limit was not always enough); inconclusive = no clear call, values can overlap the other calls; tested in BHK-21 cells.

Experiment: protection of cells from dengue 2 killing – plate reader, single concentration, primary screen (AID 651640);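 also: 0% = median of neutral control wells and 100% = median of positive control wells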
Conditions: DENV2-infected cells, cytopathic effect rescue, at 9.99 µM, stronger effect = higher value

SMILES | CPE inhibition
Cc1cc(C)cc(CC(=O)N2CCC2(C)C(=O)NS(=O)(=O)c2ccccc2C)c1 (centres undefined) | inconclusive: 47.3%
Cc1ccc(S(=O)(=O)NCC[C@@H]2CC[C@@H](NC(=O)c3ccccn3)[C@@H](CO)O2)cc1 | inactive: 1.76%
COc1ccc(C(=O)C2CCCN(Cc3cccn3-c3nccs3)C2)cc1OC (centres undefined) | inactive: 5.11%
CCCNC(=O)N1[C@H](CO)[C@@H](c2ccc(C3=CCCC3)cc2)[C@@H]1CNC(C)=O | inconclusive: 21.3%
Fc1cccc(-c2ccc(C3[C@@H]4CN(Cc5cccnc5)C[C@H]3N4)cc2)c1 (some centres undefined) | inactive: 5.83% and inactive: 2.12%
CCCC(=O)NC(=S)Nc1cccc(NC(=O)c2ccccc2)c1 | inconclusive: 27.8%
Cc1ccc2c(c1)NC(=O)[C@@]1(C)[C@@H](c3ccccc3)[C@H]3COc4ccc(Cl)cc4[C@@H]3N1C2=O | active: 82.7%
C[C@H]1CCCCO[C@@H](CN(C)Cc2ccc(C(=O)O)cc2)[C@@H](C)CN([C@@H](C)CO)C(=O)c2cc(NS(=O)(=O)c3ccc(F)cc3)ccc2O1 | inconclusive: 40.5%
COc1ccc(NC(=O)Nc2ccc3c(c2)C(=O)N([C@H](C)CO)C[C@H](C)[C@H](CN(C)C(=O)CCC(F)(F)F)OCCCC[C@H](C)O3)cc1 | inconclusive: 68.8%
CO[C@@H]1CN(C)C(=O)c2ccc(NS(=O)(=O)c3cccc(F)c3)cc2OC[C@@H](C)N(C(=O)Cc2cccnc2)C[C@H]1C | active: 82.4%
COc1cccc(NC(=O)COC(=O)C2=NN(c3ccccc3)C(=O)CC2)c1 | inconclusive: 29.2%
COc1cccc(-c2ccc([C@@H]3[C@@H](C#N)N(C(=O)Cc4ccccc4)[C@@H]3CO)cc2)c1 | active: 26.3%
CN(C)C(=O)[C@@H]1[C@@H](CO)[C@@H]2Cn3c(ccc(-c4ccncc4)c3=O)[C@@H]2N1Cc1ccccc1 | inactive: 1.92%
O=C(Nc1ccc(-c2ccccc2)cc1)[C@H]1[C@H](CO)[C@H]2Cn3c(cccc3=O)[C@@H]1N2Cc1ccccc1 | inactive: -16.4%
C[C@H](CO)N1C[C@H](C)[C@H](CN(C)Cc2cccnc2)Oc2cc(C#CCN(C)C)ccc2S1(=O)=O | inactive: -0.773%
COc1ccc([C@H]2N[C@]3(CCCN(Cc4cccn4C)C3=O)[C@H]3C(=O)N(C)C(=O)[C@@H]23)cc1 | inconclusive: 45.6%
CN(C)C(=O)c1ccc(-c2ccc([C@@H]3[C@H]4CN(C(=O)C5CCC5)CC(=O)N4[C@H]3CO)cc2)cc1 | inactive: -2.48%
CC(C)(c1cc(Br)c(O)c(Br)c1)c1cc(Br)c(O)c(Br)c1 | inactive: 3.97%
O=C1CCN(C(=O)Cc2ccccc2)c2ccccc21 | inconclusive: 22.8%
O=S1(=O)[C@H]2C[C@@H]3C=C[C@@]2(CN1Cc1ccc(F)cc1)O3 | inconclusive: 34.6%
Cc1ccc(S(=O)(=O)Nc2ccc3c(c2)C(=O)N([C@H](C)CO)C[C@H](C)[C@@H](CN(C)S(C)(=O)=O)OCCCC[C@H](C)O3)cc1 | active: 57.5%
O=S(=O)(Cc1cccc(F)c1)c1c[nH]c2ccccc12 | inconclusive: 24.5%

Entries from the list above that contain a carbonyl joined to an NH by a bond outside any ring, in the order listed:
SMILES | CPE inhibition
Cc1cc(C)cc(CC(=O)N2CCC2(C)C(=O)NS(=O)(=O)c2ccccc2C)c1 (centres undefined) | inconclusive: 47.3%
Cc1ccc(S(=O)(=O)NCC[C@@H]2CC[C@@H](NC(=O)c3ccccn3)[C@@H](CO)O2)cc1 | inactive: 1.76%
CCCNC(=O)N1[C@H](CO)[C@@H](c2ccc(C3=CCCC3)cc2)[C@@H]1CNC(C)=O | inconclusive: 21.3%
CCCC(=O)NC(=S)Nc1cccc(NC(=O)c2ccccc2)c1 | inconclusive: 27.8%
COc1ccc(NC(=O)Nc2ccc3c(c2)C(=O)N([C@H](C)CO)C[C@H](C)[C@H](CN(C)C(=O)CCC(F)(F)F)OCCCC[C@H](C)O3)cc1 | inconclusive: 68.8%
COc1cccc(NC(=O)COC(=O)C2=NN(c3ccccc3)C(=O)CC2)c1 | inconclusive: 29.2%
O=C(Nc1ccc(-c2ccccc2)cc1)[C@H]1[C@H](CO)[C@H]2Cn3c(cccc3=O)[C@@H]1N2Cc1ccccc1 | inactive: -16.4%

Carrying on:

SMILES | CPE inhibition
COCc1cc(N2CCN(C(=O)OC(C)(C)C)C[C@H]2C)ccc1N1CCS(=O)(=O)CC1 | inactive: -3.36%
C/C=C/c1ccccc1[C@H]1[C@@H](C#N)N(C(=O)NC2CCCC2)[C@H]1CO | active: 60.5%
CN1c2ccc(-c3ccc(C#N)cc3)cc2[C@@H]2[C@@H](CCN2C(=O)Nc2ccccc2F)[C@@H]1CO | active: 41.9%
C[C@@H]1CCCCO[C@H](CN(C)C(=O)c2ccncc2)[C@H](C)CN([C@H](C)CO)C(=O)c2cc(NC(=O)C3CCCCC3)ccc2O1 | inconclusive: 89.1%
CCC(=O)N1[C@@H]2Cn3c(cccc3=O)[C@H]1[C@@H](C(=O)N1CCc3ccccc3C1)[C@@H]2CO | inactive: 15.4%
COc1ccc(NC(=O)c2cc(S(=O)(=O)N(Cc3ccccc3)c3ccccc3)ccc2Cl)cn1 | inconclusive: 43.2%
O=C(Cn1[nH]c(=O)c2ccccc2c1=O)OCC(=O)c1ccc(F)cc1 | inconclusive: 32.6%
COc1ccc2c3c([nH]c2c1)[C@H](CO)N(S(C)(=O)=O)CC31CCN(CC2CCCC2)CC1 | active: 28.4%
CO[C@H]1CN(C)C(=O)c2cc(NC(=O)Nc3cccc(Cl)c3)ccc2OC[C@@H](C)NC[C@H]1C | inconclusive: 36.7%
CS(=O)(=O)N1CCCCN2[C@@H](CO)[C@H](c3ccc(-c4cccc(C#N)c4)cc3)[C@@H]2C1 | inconclusive: 23.3%
O=C(NCCc1ccc(Cl)cc1)c1ccc2nc[nH]c2c1 | inactive: -2.59%
O=C(C[C@H]1CC[C@@H]2[C@H](COC[C@H](O)CN2C(=O)Cc2ccccc2)O1)NC1CCCC1 | active: 88.5%
O=C(C[C@H]1CC[C@@H]2[C@H](COC[C@H](O)CN2C(=O)c2cc(Cl)cc(Cl)c2)O1)N1CCc2ccccc2C1 | inactive: 1.75%
Cc1ccc(C(O)c2ncc(-c3cccc(F)c3)[nH]2)cc1 (centres undefined) | inconclusive: 22.4%
CO[C@@H]1CN(C)C(=O)c2cc(NS(C)(=O)=O)ccc2OC[C@@H](C)N(C(=O)C2CCC2)C[C@@H]1C | active: 23.4%
CNc1cc(-c2ccc(O)cc2C)ncn1 | active: 28.7%
COc1ccc(-c2noc(N3CCC(C(=O)NCCCN4CCCC(C)C4)CC3)n2)cc1 (centres undefined) | inconclusive: 28.3%
COC(=O)[C@@]1(Sc2ccc(C)cc2)CC(=O)N[C@@H]1c1ccccc1 | inactive: -6.92%
C[C@@H]1CN([C@H](C)CO)C(=O)c2cc(C#CCN(C)C)cnc2O[C@H]1CN(C)C(=O)c1cccc(F)c1 | inactive: 7.48%
COc1cccc(-c2ccc(CC[C@H]3O[C@H]4CC[C@H](CO)O[C@H]4C[C@@H]3NS(C)(=O)=O)cc2)c1 | inconclusive: 23.9%
CC1(C)COC(c2cc3c(cc2Br)OCO3)OC1 | inconclusive: 22.5%
O=C(NCCCNC(=O)c1ccccc1F)c1ccco1 | inconclusive: 25.1%
